# The supplement of paper PMC8728848
# The list shows a part of the results.
# Assays:
# Assay in all cases: glycan array binding signal (z-score within array); higher = stronger binding
# Conditions in all cases: glycan notation: IUPAC condensed, linker removed
# [1] = target: Gal(b1-4)GlcNAc(b1-3)Gal(b1-4)GlcNAc(b1-2)[Gal(b1-4)GlcNAc(b1-3)Gal(b1-4)GlcNAc(b1-6)]Man(a1-6)[Gal(b1-4)GlcNAc(b1-3)Gal(b1-4)GlcNAc(b1-2)Man(a1-3)]Man(b1-4)GlcNAc(b1-4)GlcNAc
# How it was run: (§1)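 Arrays were curated from the Consortium for Functional Glycomics database, 3228 in total, and kept only where the protein sequence was available. Binding is expressed as a within-array Z-score. This score was averaged across arrays of the same protein sequence at different concentrations or buffers and across linkers, and negative values can be read as non-binding.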
# [2] = target: Gal(b1-4)GlcNAc(b1-3)Gal(b1-4)GlcNAc(b1-2)[Gal(b1-4)GlcNAc(b1-3)Gal(b1-4)GlcNAc(b1-6)]Man(a1-6)[Gal(b1-4)GlcNAc(b1-3)Gal(b1-4)GlcNAc(b1-2)Man(a1-3)]Man(b1-4)GlcNAc(b1-4)[Fuc(a1-6)]GlcNAc
# How it was run: as §1
# [3] = target: Gal(b1-4)GlcNAc(b1-3)Gal(b1-4)GlcNAc(b1-3)Gal(b1-4)GlcNAc
# How it was run: as §1
# [4] = target: Gal(b1-4)GlcNAc(b1-3)Gal(b1-4)GlcNAc(b1-3)Gal(b1-4)GlcNAc(b1-2)Man(a1-3)[Gal(b1-4)GlcNAc(b1-3)Gal(b1-4)GlcNAc(b1-3)Gal(b1-4)GlcNAc(b1-2)Man(a1-6)]Man(b1-4)GlcNAc(b1-4)GlcNAc
# How it was run: as §1
# [5] = target: Gal(b1-4)GlcNAc(b1-3)Gal(b1-4)GlcNAc(b1-3)Gal(b1-4)GlcNAc(b1-2)Man(a1-3)[Gal(b1-4)GlcNAc(b1-3)Gal(b1-4)GlcNAc(b1-3)Gal(b1-4)GlcNAc(b1-2)Man(a1-6)]Man(b1-4)GlcNAc(b1-4)[Fuc(a1-6)]GlcNAc
# How it was run: as §1
# [6] = target: Gal(b1-4)GlcNAc(b1-3)Gal(b1-4)GlcNAc(b1-3)Gal(b1-4)GlcNAc(b1-2)[Gal(b1-4)GlcNAc(b1-3)Gal(b1-4)GlcNAc(b1-3)Gal(b1-4)GlcNAc(b1-6)]Man(a1-6)[Gal(b1-4)GlcNAc(b1-3)Gal(b1-4)GlcNAc(b1-3)Gal(b1-4)GlcNAc(b1-2)Man(a1-3)]Man(b1-4)GlcNAc(b1-4)[Fuc(a1-6)]GlcNAc
# How it was run: as §1
# [7] = target: Gal(b1-4)GlcNAc(b1-3)Gal(b1-4)GlcNAc(b1-3)Gal(b1-4)GlcNAc(b1-3)Gal(b1-4)GlcNAc(b1-2)Man(a1-3)[Gal(b1-4)GlcNAc(b1-3)Gal(b1-4)GlcNAc(b1-3)Gal(b1-4)GlcNAc(b1-3)Gal(b1-4)GlcNAc(b1-2)Man(a1-6)]Man(b1-4)GlcNAc(b1-4)GlcNAc
# How it was run: as §1
# [8] = target: Gal(b1-4)GlcNAc(b1-3)Gal(b1-4)GlcNAc(b1-3)Gal(b1-4)GlcNAc(b1-3)Gal(b1-4)GlcNAc(b1-2)Man(a1-3)[Gal(b1-4)GlcNAc(b1-3)Gal(b1-4)GlcNAc(b1-3)Gal(b1-4)GlcNAc(b1-3)Gal(b1-4)GlcNAc(b1-2)Man(a1-6)]Man(b1-4)GlcNAc(b1-4)[Fuc(a1-6)]GlcNAc
# How it was run: as §1
# [9] = target: Gal(b1-4)GlcNAc(b1-3)Gal(b1-4)GlcNAc(b1-3)Gal(b1-4)GlcNAc(b1-3)Gal(b1-4)GlcNAc(b1-2)[Gal(b1-4)GlcNAc(b1-3)Gal(b1-4)GlcNAc(b1-3)Gal(b1-4)GlcNAc(b1-3)Gal(b1-4)GlcNAc(b1-6)]Man(a1-6)[Gal(b1-4)GlcNAc(b1-3)Gal(b1-4)GlcNAc(b1-3)Gal(b1-4)GlcNAc(b1-3)Gal(b1-4)GlcNAc(b1-2)Man(a1-3)]Man(b1-4)GlcNAc(b1-4)[Fuc(a1-6)]GlcNAc
# How it was run: as §1
# [10] = target: Gal(b1-4)GlcNAc(b1-3)Gal(b1-4)GlcNAc(b1-3)Gal(b1-4)GlcNAc(b1-3)Gal(b1-4)GlcNAc(b1-3)Gal(b1-4)GlcNAc(b1-2)Man(a1-3)[Gal(b1-4)GlcNAc(b1-3)Gal(b1-4)GlcNAc(b1-3)Gal(b1-4)GlcNAc(b1-3)Gal(b1-4)GlcNAc(b1-3)Gal(b1-4)GlcNAc(b1-2)Man(a1-6)]Man(b1-4)GlcNAc(b1-4)GlcNAc
# How it was run: as §1
# [11] = target: Gal(b1-4)GlcNAc(b1-3)Gal(b1-4)GlcNAc(b1-3)Gal(b1-4)GlcNAc(b1-3)Gal(b1-4)GlcNAc(b1-3)Gal(b1-4)GlcNAc(b1-2)Man(a1-3)[Gal(b1-4)GlcNAc(b1-3)Gal(b1-4)GlcNAc(b1-3)Gal(b1-4)GlcNAc(b1-3)Gal(b1-4)GlcNAc(b1-3)Gal(b1-4)GlcNAc(b1-2)Man(a1-6)]Man(b1-4)GlcNAc(b1-4)[Fuc(a1-6)]GlcNAc
# How it was run: as §1
# [12] = target: Gal(b1-4)GlcNAc(b1-3)Gal(b1-4)GlcNAc(b1-3)Gal(b1-4)GlcNAc(b1-3)Gal(b1-4)GlcNAc(b1-3)Gal(b1-4)GlcNAc(b1-2)[Gal(b1-4)GlcNAc(b1-3)Gal(b1-4)GlcNAc(b1-3)Gal(b1-4)GlcNAc(b1-3)Gal(b1-4)GlcNAc(b1-3)Gal(b1-4)GlcNAc(b1-6)]Man(a1-6)[Gal(b1-4)GlcNAc(b1-3)Gal(b1-4)GlcNAc(b1-3)Gal(b1-4)GlcNAc(b1-3)Gal(b1-4)GlcNAc(b1-3)Gal(b1-4)GlcNAc(b1-2)Man(a1-3)]Man(b1-4)GlcNAc(b1-4)[Fuc(a1-6)]GlcNAc
# How it was run: as §1
# [13] = target: Gal(b1-4)GlcNAc(b1-3)Gal(b1-4)GlcNAc(b1-3)Gal(b1-4)GlcNAc(b1-3)Gal(b1-4)GlcNAc(b1-3)Gal(b1-4)GlcNAc(b1-3)Gal(b1-4)GlcNAc(b1-2)Man(a1-3)[Gal(b1-4)GlcNAc(b1-3)Gal(b1-4)GlcNAc(b1-3)Gal(b1-4)GlcNAc(b1-3)Gal(b1-4)GlcNAc(b1-3)Gal(b1-4)GlcNAc(b1-3)Gal(b1-4)GlcNAc(b1-2)Man(a1-6)]Man(b1-4)GlcNAc(b1-4)GlcNAc
# How it was run: as §1
# [14] = target: Gal(b1-4)GlcNAc(b1-3)Gal(b1-4)GlcNAc(b1-3)GalNAc
# How it was run: as §1
# [15] = target: Gal(b1-4)GlcNAc(b1-3)Gal(b1-4)GlcNAc(b1-3)[Gal(b1-4)GlcNAc(b1-3)Gal(b1-4)GlcNAc(b1-6)]GalNAc
# How it was run: as §1
binder,measurement,setting,value
"Awp3 (Candida glabrata), B4UN32 (protein) MISFVTLLAILGLLSISWADQTVRSVAGDQRVTDPVIVGDNSILDYYGGSNYDFSNNFEIGRGTLYIGKESYFSSFQSAPTDVPNSFHLLIKNTNNLQNNGQFIIENIKRHANQCSNSSIQVFPINFQNDGEFEIISGGVEGRCCLPTSVIAPQNFLNNGKFYYKVLTDTGSIYSGSCMQNVDIGASTTTTVNNNLWEFTGSINAQINGAVSGAAQINLDGSNMFVNANTFSGQVVNLINGGSFLQTSDPLSNIVVINGLGTSDTGVTSIAVKGKGKSFTYNPSSGIVKLTTVEGKTYAYQIGCGYNTKKFITNNDSGASYESADNFFVLTYSEPYSPQTCQLENSSIFSSNFISTSTSSSSSSSSASSLPSSMSSSLPSSLSSSLSSSLSSSMSSSMSSLFIIPPPYTTTRSSGSSIIDTEIVSFYSTTDSPGHTITGTTTTTLYGPHTHSSVSTPSSSSESSTTSNSSIESSSLPHTSVSSTPESSITPSSNTISSSPTSDFSSVQSSSIMESSSVVASSSVINSSSIVDSSSSSASSLPSSMSSSLSSSMSSSLPSSMSSSLSSSLSSSLSSSMSSSMSSLFIIPPPYTTTRSSGSSIIDTEIVSFYSTTDSPGHTITGTTTTTLYGPHTHSSVSTPSSSSESSTTSNSSIESSSLPHTSVSSTPESSITPSSNTISSSPTSDFSSVQSSSIMESSSVVASSSVINSSSIVDSSSSSASSLPSSMPSSLPSSMSSSLSSSMSSSLSSSLSSSLSSSMSSSMSSLFIIPPPYTTTRSSGSSIIDTEIVSFYSTTDSPGHTITGTTTTTLYGPHTHSSVSTPSSSSESSTTSNSSIESSSLPHTSVSSTPESSITPSSNTISSSPTSDFSSVQSSSIMESSSVVASSSATQSSSVINSSSIVDSSSSSASSLPSSMPSSLPSSLSSSLSSSLSSSMSSSMSSLFIIPPPYTTTRSSGSSIIDTEIVSFYSTTDSPGHTITGTTTTTLYESSIYSSSSSTIQESELSNTSRTTMTSNSSVSISSTSSRSSFSNTKSSTIVISQSASLPDSKTDIILSTSSNIGYSSRSLLSDLGTSISDSDIHHSVLHSTESYSSNESGTNPFTSIASLSNFIPESSSHTSTALGSENSVISSDILTTMSHPVATNSGDKPTTPKRSEQVSTTMTSSGPTPDTSSFDTDGMSAYSRPEFTTNSLEVNKSSTSQLGNNKQTFSNLQLESTRPHSENEVDNNTRLLQSIQQSSTYGTNNVNPLSPTGSISIPLTEDGQGDNNNWNSPATNDLCTQISFNLTATTITVTDRITITDSIHDISSEVITSYIYQTIVDQKTVTQTVDGKSLANKMSSIPKPSSRSLIQPQPPVAIELQEGAASTSRVSLVSLFISIILVLL",glycan array binding signal (z-score),[1],1.76
same,glycan array binding signal (z-score),[2],-1.19
same,glycan array binding signal (z-score),[3],0.124
same,glycan array binding signal (z-score),[4],0.958
same,glycan array binding signal (z-score),[5],0.842
same,glycan array binding signal (z-score),[6],1.96
same,glycan array binding signal (z-score),[7],-0.476
same,glycan array binding signal (z-score),[8],0.582
same,glycan array binding signal (z-score),[9],0.977
same,glycan array binding signal (z-score),[10],-0.487
same,glycan array binding signal (z-score),[11],0.113
same,glycan array binding signal (z-score),[12],-0.313
same,glycan array binding signal (z-score),[13],0.362
same,glycan array binding signal (z-score),[14],1.03
same,glycan array binding signal (z-score),[15],2.16
